Test results: US7312302B2, “Compositions for the detection of enzyme activity in biological samples and methods of use thereof” (Oncolmmunin, Inc., priority 1997, dated 2007)
Non-standard residues stand in square brackets, D forms with d. Residues, ends and D or L forms follow the SMILES beside them. *: point of attachment. X2 = CN(C)c1ccc2c(-c3cc(C(=O)*)ccc3C(=O)[O-])c3ccc(=[N+](C)C)cc-3oc2c1; X3 = CCN=c1cc2oc3cc(NCC)c(C)cc3c(-c3cc(C(=O)*)ccc3C(=O)O)c-2cc1C; X1 = CN(C)c1ccc2c(c1)Oc1cc(N(C)C)ccc1C21OC(=O)c2ccc(C(=O)*)cc21; 5FAM = O=C1OC2(c3ccc(O)cc3Oc3cc(O)ccc32)c2ccc(C(=O)*)cc21; Nle = CCCC[C@H](N)C(=O)O

Assay: Percent fluorescence quenching, intact vs enzyme digested labeled peptide
Settings: for % Q − (1 − (Io/Ic)) × 100: Io intact labeled peptide, Ic enzyme digested labeled peptide; for degree of quenching: intact peptide relative to cleaved solution

SMILES | % Q − (1 − (Io/Ic)) × 100 [%] | degree of quenching [%]
CCCC[C@H](NC(=O)[C@@H]1CCCN1C(=O)[C@@H](NC(=O)[C@H](C)NC(=O)[C@H](CC(=O)O)NC(=O)[C@@H](N)CCCCNC(=O)c1ccc(C(=O)[O-])c(-c2c3ccc(=[N+](C)C)cc-3oc3cc(N(C)C)ccc23)c1)[C@@H](C)CC)C(=O)N[C@@H](CO)C(=O)N[C@H](C(=O)N1CCC[C@H]1C(=O)N[C@@H](CCCCNC(=O)c1ccc(C(=O)O)c(-c2c3cc(C)c(=NCC)cc-3oc3cc(NCC)c(C)cc23)c1)C(=O)NCC(=O)N[C@@H](Cc1ccc(O)cc1)C(=O)O)[C@@H](C)CC [6-TMR-K-NorFes-DER] (H-K(X2)DAIP[Nle]SIPK(X3)GY-OH; N-terminus and C-terminus assumed) | 97 | 
CCCC[C@H](NC(=O)[C@@H]1CCCN1C(=O)[C@@H](NC(=O)[C@H](C)NC(=O)[C@H](CC(=O)O)NC(=O)c1ccc(C(=O)[O-])c(-c2c3ccc(=[N+](C)C)cc-3oc3cc(N(C)C)ccc23)c1)[C@@H](C)CC)C(=O)N[C@@H](CO)C(=O)N[C@H](C(=O)N1CCC[C@H]1C(=O)N[C@@H](CCCCNC(=O)c1ccc(C(=O)O)c(-c2c3cc(C)c(=NCC)cc-3oc3cc(NCC)c(C)cc23)c1)C(=O)NCC(=O)N[C@@H](Cc1ccc(O)cc1)C(=O)O)[C@@H](C)CC [6-TMR-NorFes-DER] (X2-DAIP[Nle]SIPK(X3)GY-OH; C-terminus assumed) | 94 | 94
CCCC[C@H](NC(=O)[C@@H]1CCCN1C(=O)[C@@H](NC(=O)[C@H](C)NC(=O)[C@H](CC(=O)O)NC(=O)[C@@H](N)CCCCNC(=O)c1ccc2c(c1)C1(OC2=O)c2ccc(N(C)C)cc2Oc2cc(N(C)C)ccc21)[C@@H](C)CC)C(=O)N[C@@H](CO)C(=O)N[C@H](C(=O)N1CCC[C@H]1C(=O)N[C@@H](CCCCNC(=O)c1ccc2c(c1)C1(OC2=O)c2ccc(N(C)C)cc2Oc2cc(N(C)C)ccc21)C(=O)NCC(=O)N[C@@H](Cc1ccc(O)cc1)C(=O)O)[C@@H](C)CC [6-TMR-K-NorFes-6-TMR] (H-K(X1)DAIP[Nle]SIPK(X1)GY-OH; N-terminus and C-terminus assumed) | 92 | 
CCCC[C@H](NC(=O)[C@@H]1CCCN1C(=O)[C@@H](NC(=O)[C@H](C)NC(=O)[C@H](CC(=O)O)NC(=O)c1ccc(C(=O)O)c(-c2c3cc(C)c(=NCC)cc-3oc3cc(NCC)c(C)cc23)c1)[C@@H](C)CC)C(=O)N[C@@H](CO)C(=O)N[C@H](C(=O)N1CCC[C@H]1C(=O)N[C@@H](CCCCNC(=O)c1ccc(C(=O)O)c(-c2c3cc(C)c(=NCC)cc-3oc3cc(NCC)c(C)cc23)c1)C(=O)NCC(=O)N[C@@H](Cc1ccc(O)cc1)C(=O)O)[C@@H](C)CC [DER-NorFes-DER] (X3-DAIP[Nle]SIPK(X3)GY-OH; C-terminus assumed) | 90 | 
CCCC[C@H](NC(=O)[C@@H]1CCCN1C(=O)[C@@H](NC(=O)[C@H](C)NC(=O)[C@H](CC(=O)O)NC(=O)c1ccc2c(c1)C(=O)OC21c2ccc(O)cc2Oc2cc(O)ccc21)[C@@H](C)CC)C(=O)N[C@@H](CO)C(=O)N[C@H](C(=O)N1CCC[C@H]1C(=O)N[C@@H](CCCCNC(=O)c1ccc2c(c1)C(=O)OC21c2ccc(O)cc2Oc2cc(O)ccc21)C(=O)NCC(=O)N[C@@H](Cc1ccc(O)cc1)C(=O)O)[C@@H](C)CC [Compound F1-NorFes-F1] (5FAM-DAIP[Nle]SIPK(5FAM)GY-OH; C-terminus assumed) | 55 | 55
CCCC[C@H](NC(=O)[C@@H]1CCCN1C(=O)[C@@H](NC(=O)[C@H](C)NC(=O)[C@H](CC(=O)O)NC(=O)c1ccc2c(c1)C1(OC2=O)c2ccc(N(C)C)cc2Oc2cc(N(C)C)ccc21)[C@@H](C)CC)C(=O)N[C@@H](CO)C(=O)N[C@H](C(=O)N1CCC[C@H]1C(=O)N[C@@H](CCCCNC(=O)c1ccc2c(c1)C1(OC2=O)c2ccc(N(C)C)cc2Oc2cc(N(C)C)ccc21)C(=O)NCC(=O)N[C@@H](Cc1ccc(O)cc1)C(=O)O)[C@@H](C)CC [6-TMR-NorFes-6-TMR] (X1-DAIP[Nle]SIPK(X1)GY-OH; C-terminus assumed) | 90 | 90
